In patent US20110112299A1, “TETRACYCLIC COMPOUND” (KYOWA HAKKO KIRIN CO., LTD., priority 2008, published 2011):
Some results were stated once for a whole list of compounds, not compound by compound. For at least one compound, name, drawing or mass did not settle the structure.

Assays:
[1] = biological target: T1, recombinant human progesterone receptor (Homo sapiens, UniProt P06401); experiment: Human progesterone receptor assay (2) (fluorescence polarization, Test Example 6); format: binding; details: at a concentration of 1000 nmol/L
T1 construct: purchased Panvera/Invitrogen P2899 (kit P2895)
T1 sequence (P06401 675-933 limits assumed): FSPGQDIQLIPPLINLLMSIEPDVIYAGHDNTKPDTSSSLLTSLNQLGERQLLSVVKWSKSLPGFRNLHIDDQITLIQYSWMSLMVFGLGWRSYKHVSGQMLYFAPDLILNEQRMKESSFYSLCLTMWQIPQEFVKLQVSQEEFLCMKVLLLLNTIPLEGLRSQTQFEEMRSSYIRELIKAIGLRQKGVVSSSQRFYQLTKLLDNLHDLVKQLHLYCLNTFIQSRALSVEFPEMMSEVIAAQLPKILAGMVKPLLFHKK

[2] = biological target: T2, recombinant human glucocorticoid receptor (Homo sapiens, UniProt P04150); experiment: Human glucocorticoid receptor assay (2) (fluorescence polarization, Test Example 5); format: binding; details: at a concentration of 100 nmol/L
T2 construct: purchased Panvera/Invitrogen P2812 (kit P2893)
T2 sequence (P04150 1-777): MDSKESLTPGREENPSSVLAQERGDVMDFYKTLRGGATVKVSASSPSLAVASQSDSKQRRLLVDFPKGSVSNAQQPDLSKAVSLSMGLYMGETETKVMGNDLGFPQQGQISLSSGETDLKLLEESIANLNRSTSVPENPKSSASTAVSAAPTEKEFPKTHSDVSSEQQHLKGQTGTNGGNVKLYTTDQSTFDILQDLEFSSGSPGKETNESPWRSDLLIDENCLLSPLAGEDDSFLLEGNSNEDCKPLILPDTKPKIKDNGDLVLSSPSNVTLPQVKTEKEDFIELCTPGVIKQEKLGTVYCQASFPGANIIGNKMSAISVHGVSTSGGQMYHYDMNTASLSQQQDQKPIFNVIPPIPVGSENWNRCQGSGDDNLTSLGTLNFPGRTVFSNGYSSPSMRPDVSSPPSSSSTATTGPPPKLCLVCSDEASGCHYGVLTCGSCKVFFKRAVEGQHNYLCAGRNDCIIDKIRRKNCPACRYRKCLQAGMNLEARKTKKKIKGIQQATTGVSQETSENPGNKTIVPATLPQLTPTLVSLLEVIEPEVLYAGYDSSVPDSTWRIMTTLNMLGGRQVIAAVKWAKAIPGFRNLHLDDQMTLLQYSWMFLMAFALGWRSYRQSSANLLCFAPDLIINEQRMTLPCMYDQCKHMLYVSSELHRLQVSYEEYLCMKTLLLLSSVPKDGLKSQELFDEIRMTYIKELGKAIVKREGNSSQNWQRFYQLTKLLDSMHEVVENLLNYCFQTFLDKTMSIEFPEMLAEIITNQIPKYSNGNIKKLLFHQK
Experimental: In this assay, a fluorescence polarization assay kit (Panvera/Invitrogen, product number: P2893) was used. The recombinant human glucocorticoid receptor (product number: P2812), the Fluoromore (trademark)-labeled dexamethasone (GS Green, product number: P2813), the stabilizing peptide solution (product number: P2815), and the basic buffer solution (product number: P2814) which were used in the assay kit had been stored at −80° C. until used. A buffer solution for the assay was prepared by adding the basic buffer solution (10 fold dilution), the stabilizing peptide solution (10 fold dilution), and 1 mol/L DTT (dithiothreitol) (1000 fold dilution to give a final concentration of 1 mmol/L).
The assay was performed as follows. […] The fluorescence polarization value of each well was measured using a plate reader (PerkinElmer, Fusion or Envision). […] To a positive control group, dexamethasone was added so as to give a final concentration of 1 μmol/L. The glucocorticoid receptor binding inhibitory rate (%) was calculated by the following formula.
Glucocorticoid receptor binding inhibitory rate (%)=100×[1−(fluorescence polarization value of test compound solution−fluorescence polarization value of positive control solution)/(fluorescence polarization value of negative control solution−fluorescence polarization value of positive control solution)]

[3] = tested on: IL-1β induced IL-6 production (A549 cells); experiment: Inhibition assay for IL-1β induced IL-6 production in A549 cells (Test Example 3); format: cell-based, human; details: at a concentration of 100 nmol/L, IL-1β stimulation, relative to dexamethasone
Experimental: A549 cells cultured in F-12 medium supplemented with 10% bovine serum for 3 to 5 days were transferred to a 96-well plate (50000 cells/well) and then were cultured overnight. […] After the medium was removed by suction, 60 μL of F-12 medium was added to each well, and 20 μL of the test compound diluted to 5-fold of the desired concentration with F-12 medium or 20 μL of 4 μmol/L dexamethasone was added thereto. The test compound and the dexamethasone used here were prepared beforehand by dissolving in dimethyl sulfoxide (DMSO) and diluting with F-12 medium so that the final concentration of DMSO became 0.1% v/v or lower. After 30-minute incubation under 5% CO2 atmosphere at 37° C., 20 μL of 4 nmol/L IL-1β diluted with F-12 medium was added to each well, and then incubation was performed under a 5% CO2 atmosphere at 37° C. for 12 to 18 hours. The 96-well plate was centrifuged at 300×g at 4° C. for 5 minutes, and then the culture supernatant was collected for use as a sample for IL-6 measurement. The IL-6 produced in the culture supernatant was quantified by the ELISA method (R&D Systems, product number: DY206, DouSet ELISA Development System Human IL-6), and the production inhibition rate was calculated by the following formula. […]

Structure (SMILES): CC/C(=C1\c2cc3cnn(C(C)C)c3cc2COc2ncccc21)c1cccc(NS(C)(=O)=O)c1 [Compound 25, (Z)-1-isopropyl-5-{1-[3-(methanesulfonamide)phenyl]propylidene}-5,11-dihydro-1H-indazolo[5,6-e]pyrido-[2,3-b]oxepin]
- progesterone receptor binding inhibitory activity [1]: ≤ 20%
- glucocorticoid receptor binding inhibitory activity [2]: ≥ 80%
- IL-6 production inhibitory activity [3]: ≥ 80%
